The exact form of at least one protein or probe is not confirmed. At least one verdict was read from the data and is not stated in words by the source.
Target: OsPHR2 (UniProt Q6Z156)
Assay: GCI
Details: 4 C, 200 mM NaCl, Kd only in figure; GCI at 4 C: AtPHR1 in 20 mM HEPES pH 7.5, 300 mM NaCl; OsPHR2 in 20 mM HEPES pH 7.9, 200 mM NaCl; recombinant protein; residues 1-426; protein details: His8-Strep-GB1 N-terminal, TEV-cleaved; label: 5'-biotin on strand 1

Sequences of proteins named here, by UniProt entry; tags and fusion partners are left off. A change or cut given only in a name is not applied to a line headed by its entry.
UniProt Q6Z156: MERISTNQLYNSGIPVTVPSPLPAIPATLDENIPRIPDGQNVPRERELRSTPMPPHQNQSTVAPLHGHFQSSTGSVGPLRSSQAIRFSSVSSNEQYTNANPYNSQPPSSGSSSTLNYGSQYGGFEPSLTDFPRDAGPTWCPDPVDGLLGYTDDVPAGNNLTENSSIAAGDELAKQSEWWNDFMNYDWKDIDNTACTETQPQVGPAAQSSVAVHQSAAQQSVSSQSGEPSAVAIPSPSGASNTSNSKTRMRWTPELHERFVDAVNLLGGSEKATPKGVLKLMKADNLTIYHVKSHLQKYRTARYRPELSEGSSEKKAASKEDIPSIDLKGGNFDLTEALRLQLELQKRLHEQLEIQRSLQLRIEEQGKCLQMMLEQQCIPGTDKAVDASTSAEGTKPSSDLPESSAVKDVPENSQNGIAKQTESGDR

Does “TAATGCTCGCCGCATATCCTTTGGTAGATA (double strand) [pOsIPS1 biotin]” bind?
Result: binds

Reference: article PMC7810988, “Inositol pyrophosphates promote the interaction of SPX domains with the coiled-coil motif of PHR transcription factors to regulate plant phosphate homeostasis” (Nature Communications, 2021)
